Results are given in words; binding and its absence hold for the method and conditions named. In cells and extracts the contact can be indirect. Some entries that bind do so weakly or less than the wild type.
Target: GST-hRXRα (bacterially expressed glutathione-S-transferase-RXRα fusion protein) (human) (UniProt P19793)
Assay: glutathione-sepharose pull-down of GST-RXR with purified T3R, read out by bound [125I]T3

Chains of the proteins cited; added tags and fusions are not shown.
UniProt P19793: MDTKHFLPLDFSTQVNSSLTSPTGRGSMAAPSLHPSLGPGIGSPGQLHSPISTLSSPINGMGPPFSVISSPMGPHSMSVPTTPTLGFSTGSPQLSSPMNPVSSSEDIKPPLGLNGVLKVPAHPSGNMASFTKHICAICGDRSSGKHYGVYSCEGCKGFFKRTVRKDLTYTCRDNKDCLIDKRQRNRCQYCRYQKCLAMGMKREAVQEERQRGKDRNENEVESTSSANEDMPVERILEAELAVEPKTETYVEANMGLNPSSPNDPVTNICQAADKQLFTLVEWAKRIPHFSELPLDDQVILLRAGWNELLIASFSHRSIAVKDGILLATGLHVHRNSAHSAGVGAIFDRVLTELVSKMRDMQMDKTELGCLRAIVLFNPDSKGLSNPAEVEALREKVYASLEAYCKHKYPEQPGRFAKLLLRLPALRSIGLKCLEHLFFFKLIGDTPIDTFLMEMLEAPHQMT

B1: chicken T3Rα1 (receptor, UniProt P04625 1-408, looked up)
chain: MEQKPSTLDPLSEPEDTRWLDGKRKRKSSQCLVKSSMSGYIPSYLDKDEQCVVCGDKATGYHYRCITCEGCKGFFRRTIQKNLHPTYSCKYDGCCVIDKITRNQCQLCRFKKCISVGMAMDLVLDDSKRVAKRKLIEENRERRRKEEMIKSLQHRPSPSAEEWELIHVVTEAHRSTNAQGSHWKQKRKFLPEDIGQSPMASMPDGDKVDLEAFSEFTKIITPAITRVVDFAKKLPMFSELPCEDQIILLKGCCMEIMSLRAAVRYDPESETLTLSGEMAVKREQLKNGGLGVVSDAIFDLGKSLSAFNLDDTEVALLQAVLLMSSDRTGLICVDKIEKCQETYLLAFEHYINYRKHNIPHFWPKLLMKVTDLRMIGACHASRFLHMKVECPTELFPPLFLEVFEDQEV
- binding: binds

From patent US6458926
